Assay results taken from article PMC11079228.
No constants are given. Whether binding was seen depends on the method and setting. Binding seen in cells or lysates may run through a third protein. These calls come from enrichment with a bait or labelling near it, and not all partners need be listed.

B1: UBL4A (protein, UniProt B2GV38 1-157)
chain: MQLTVKALQGRECSLQVAEDELVSTLKHLVSDKLNVPVRQQRLLFKGKALADEKRLSDYNIGPNSKLNLVVKPLEKVLLEEGSAHRLVDSSATPIWQLISKVLARHFSIGDASRVLEQLQRDYDRSLSRLTLDDIERLASRFLHPEVTEAMEKGFCK
B2: ACO2 (protein, UniProt Q9ER34 28-780)
chain: QRAKVAMSHFEPSEYIRYDLLEKNINIVRKRLNRPLTLSEKIVYGHLDDPANQEIERGKTYLRLRPDRVAMQDATAQMAMLQFISSGLPKVAVPSTIHCDHLIEAQLGGEKDLRRAKDINQEVYNFLATAGAKYGVGFWRPGSGIIHQIILENYAYPGVLLIGTDSHTPNGGGLGGICIGVGGADAVDVMAGIPWELKCPKVIGVKLTGTLSGWTSPKDVILKVAGILTVKGGTGAIVEYHGPGVDSISCTGMATICNMGAEIGATTSVFPYNHRMKKYLSKTGRADIANLAEEFKDHLVPDPGCQYDQVIEINLNELKPHINGPFTPDLAHPVADVGTVAEKEGWPLDIRVGLIGSCTNSSYEDMGRSAAVAKQALAHGLKCKSQFTITPGSEQIRATIERDGYAQILRDVGGIVLANACGPCIGQWDRKDIKKGEKNTIVTSYNRNFTGRNDANPETHAFVTSPEIVTALAIAGTLKFNPETDFLTGKDGKKFKLEAPDADELPRSDFDPGQDTYQHPPKDSSGQRVDVSPTSQRLQLLEPFDKWDGKDLEDLQILIKVKGKCTTDHISAAGPWLKFRGHLDNISNNLLIGAINIENGKANSVRNAVTQEFGPVPDTARYYKKHGIRWVVIGDENYGEGSSREHAALEPRHLGGRAIITKSFARIHETNLKKQGLLPLTFADPSDYNKIHPVDKLTIQGLKDFAPGKPLNCIIKHPNGTQETILLNHTFNETQIEWFRAGSALNRMKELQQ
B3: MCM4 (protein, UniProt G3V681 1-862)
chain: MSSPASTPSRRSSRRGRVTPTQSLRSEESRSSPSGRRRGEDSSTGELLPMPTSPGADLQSPAAQNALFSSPPQMHSSAIPLEFDVSSPLTYGTPSSRVEGTPRSGVRGTPMRQRPDLGSARKGLQVDLQSDGAAAEDTVASEQSLGQKLVIWGTDVNVATCKEHFQRFLQCFTDPLAKEEENVGIDITQPLYMQRLGEINITGEPFLNVNCEHIKSFGKNLYRQLISYPQEVIPTFDMAVNEIFFDRYPDSILEHQIQVRPFNALKTKSMRNLNPEDIDQLITISGMVIRTSQLIPEMQEAFFQCQVCAHTTRVEMDRGRIAEPCTCVHCHTTHSMALIHNRSLFSDKQMIKLQESPEDMPAGQTPHTVVLFAHNDLVDKVQPGDRVNVTGIYRAVPIRVNPRVSNVKSVYKTHIDVIHYRKTDAKRLHGLDEEAEQKLFSEKRVKLLKELSRKPDIYERLASALAPSIYEHEDIKKGILLQLFGGTRKDFSHTGRGKFRAEINILLCGDPGTSKSQLLQYVYNLVPRGQYTSGKGSSAVGLTAYVMKDPETRQLVLQTGALVLSDNGICCIDEFDKMNESTRSVLHEVMEQQTLSIAKAGIICQLNARTSVLAAANPIESQWNPKKTTIENIQLPHTLLSRFDLIFLMLDPQDEAYDRRLAHHLVSLYYQSEEQVEQEFLDMAVLKDYIAYAHSTIMPRLSEEASQALIEAYVNMRKIGSSRGMVSAYPRQLESLIRLAEAHAKVRFSDKVEAIDVEEAKRLHREALKQSATDPRTGIVDISILTTGMSATSRKRKEELAEALRKLILSKGKTPALKYQQLFEDIRGQSDTAITKDMFEEALRALADDDFLTVTGKTVRLL
B4: 14-3-3 protein gamma; tyrosine 3-monooxygenase/tryptophan 5-monooxygenase activation protein, gamma (protein, UniProt P61983 1-247)
chain: MVDREQLVQKARLAEQAERYDDMAAAMKNVTELNEPLSNEERNLLSVAYKNVVGARRSSWRVISSIEQKTSADGNEKKIEMVRAYREKIEKELEAVCQDVLSLLDNYLIKNCSETQYESKVFYLKMKGDYYRYLAEVATGEKRATVVESSEKAYSEAHEISKEHMQPTHPIRLGLALNYSVFYYEIQNAPEQACHLAKTAFDDAIAELDTLNEDSYKDSTLIMQLLRDNLTLWTSDQQDDDGGEGNN
B5: Vinculin (protein, UniProt P85972 1-1066)
chain: MPVFHTRTIESILEPVAQQISHLVIMHEEGEVDGKAIPDLTAPVAAVQAAVSNLVRVGKETVQTTEDQILKRDMPPAFIKVENACTKLVQAAQMLQSDPYSVPARDYLIDGSRGILSGTSDLLLTFDEAEVRKIIRVCKGILEYLTVAEVVETMEDLVTYTKNLGPGMTKMAKMIDERQQELTHQEHRVMLVNSMNTVKELLPVLISAMKIFVTTKNSKNQGIEEALKNRNFTVGKMSAEINEIIRVLQLTSWDEDAWASKDTEAMKRALASIDSKLNQAKGWLRDPNASPGDAGEQAIRQILDEAGKVGELCAGKERREILGTCKMLGQMTDQVADLRARGQGASPVAMQKAQQVSQGLDVLTAKVENAARKLEAMTNSKQSIAKKIDAAQNWLADPNGGPEGEEQIRGALAEARKIAELCDDPKERDDILRSLGEIAALTSKLGDLRRQGKGDSPEARALAKQVATALQNLQTKTNRAVANSRPAKAAVHLEGKIEQAQRWIDNPTVDDRGVGQAAIRGLVAEGHRLANVMMGPYRQDLLAKCDRVDQLAAQLADLAARGEGESPQARALASQLQDSLKDLKTQMQEAMTQEVSDVFSDTTTPIKLLAVAATAPPDAPNREEVFDERAANFENHSGRLGATAEKAAAVGAANKSTVEGIQASVKTARELTPQVISAARILLRNPGNQAAYEHFETMKNQWIDNVEKMTGLVDEAIDTKSLLDASEEAIKKDLDKCKVAMANIQPQMLVAGATSIARRANRILLVAKREVENSEDPKFREAVKAASDELSKTISPMVMDAKAVAGNISDPGLQKSFLDSGYRILGAVAKVREAFQPQEPDFPPPPPDLEQLRLTDELAPPKPPLPEGEVPPPRPPPPEEKDEEFPEQKAGEVINQPMMMAARQLHDEARKWSSKGNDIIAAAKRMALLMAEMSRLVRGGSGTKRALIQCAKDIAKASDEVTRLAKEVAKQCTDKRIRTNLLQVCERIPTISTQLKILSTVKATMLGRTNISDEESEQATEMLVHNAQNLMQSVKETVREAEAASIKIRTDAGFTLRWVRKTPWYQ
B6: VCPIP1 (protein, UniProt Q8CF97 1-1221)
chain: MSQPPPPPPLPPPPPPPEAPQTSSSLAAAATPGGLSKRRDRRILSGSCPDPKCQARLFFPASGSVSIECTECGQRHEQQQLLGVEEVTDPDVVLHNLLRNALLGVTGAPKKNTELVKVMGLSNYHCKLLSPILARYGMDKQTGRAKLLRDMNQGELFDCALLGDRAFLIEPEHVNTVGYGKDRSGSLLYLHDTLEDIKRANKSQECLIPVHVDGDGHCLVHAVSRALVGRELFWHALRENLKQHFQQHLARYQALFHDFIDAAEWEDIINECDPLFVPPEGVPLGLRNIHIFGLANVLHRPIILLDSLSGMRSSGDYSATFLPGLIPAEKCTGRDGHLNKPICIAWSSSGRNHYIPLVGIKGAALPKLPMNLLPKAWGVPQDLIKKYIKLEEDGGCVIGGDRSLQDKYLLRLVAAMEEVFMDKHGIHPSLVADVHQYFYRRTGVIGVQPEEVTAAAKKAVMDNRLHKCLLCGALSELHVPPEWLAPGGKLYNLAKSTHGQLRPDKNYSFPLNNLVCSYDPVKDVLLPDYGLSNLTACNWCHGTSVRRVRGDGSIVYLDGDRTNSRSTGGKCGCGFKHFWEGKEYDNLPEAFPITLEWGGRVVRETVYWFQYESDPSLNSNVYDVAMKLVTKHFPGEFGSEILVQKVVHTILHQTAKKNPDDYTPVNIDGAHAQRIGDVQGQELESQLPTKIILTGQKTKTLHKEELNMSKTERTIQQNITEQASVMQKRKTEKLKQEQKGQPRTVSPSTIRDGPSSAPATPTKAPYSPTTSKEKKIRITTNDGRQSMVTLKSSTTFFELQESIAREFNIPPYLQCIRYGFPPKELMPPQAGMEKEPVPLQHGDRITIEILKGKAEGGPSTAAHSAHTVRQEEIAVTGKLSSKELQEQADKEMYSLCLLATLMGEDVWSYAKGLPHMFQQGGVFYNIMKKTMGMADGKHCTFPHLPGKTFVYNASEDRLELCVDAAGHFPIGPDVEDLVKEAVSQVRAEATTRSRESSPSHGLLKLGSGGVVKKKSEQLHNVTAFQGKGHSLGTASSNPHMDPRARETLAVRKHNTGTDFSNSSIKTEPPVFTAASSNSELIRIAPGVVTMRDGRQIDPDVVEAQRKKLQEMVSSIQASMDKHLRDQSTEQTPSDLSQRKVEAVSSSVRPGNLQTGLPESFSLTGGTENLNTETTDSRVADVLGAAFATRSKAQKENSMEEPEEMDSQDAETTNTTEPMDHS
B7: Na(+)/H(+) exchange regulatory cofactor NHE-RF1 (protein, UniProt Q9JJ19 1-356)
chain: MSADAAAGEPLPRLCCLEKGPNGYGFHLHGEKGKVGQFIRLVEPGSPAEKSGLLAGDRLVEVNGENVEKETHQQVVSRIRAALNAVRLLVVDPETDEQLKKLGVPIREELLRAQEKSEHTEPPAAADTKKAGDQNEAEKSHLERCELRPRLCTMKKGPNGYGFNLHSDKSKPGQFIRAVDPDSPAEASGLRAQDRIVEVNGVCMEGKQHGDVVSAIKAGGDEAKLLVVDKETDEFFKKCRVTPSQEHLDGPLPEPFSNGEIQKENSREALVEPASESPRPALARSASSDTSEELNAQDSPKRHDSTEPSSTSSSSDPILDFNISLAVAKERAHQKRSSKRAPQMDWSKKNELFSNL
B8: RNA-binding motif protein, X chromosome retrogene-like; (protein, UniProt Q4V898 1-390)
chain: MVEADRPGKLFIGGLNTETNEKALEAVFGKYGRIVEVLLMKDRETNKSRGFAFVTFESPADAKDAARDMNGKSLDGKAIKVEQATKPSFESGRRGLPPPPRSRGPPRGLRGGRGGSGGTRGPPSRGGHMDDGGYSMNFTLSSSRGPLPVKRGPPPRSGGPPPKRSAPSGPVRSSSGMGGRAPVSRGRDGYGGPPRREPLPSRRDVYLSPRDDGYSTKDSYSSRDYPSSRDTRDYAPPPRDYTYRDYGHSSSRDDYPSRGYSDRDGYGRERDYSDHPSGGSYRDSYESYGNSRSAPPTRGPPPSYGGSSRYDDYSSSRDGYGGSRDSYTSSRSDLYSSGRDRVGRQERGLPPSMERGYPPPRDSYSSSSRGAPRGGGRGGSRSDRGGRSRY
B9: IDH3A (protein, UniProt Q99NA5 28-366)
chain: AGGVQTVTLIPGDGIGPEISASVMKIFDAAKAPIQWEERNVTAIQGPGGKWMIPPEAKESMDKNKMGLKGPLKTPIAAGHPSMNLLLRKTFDLYANVRPCVSIEGYKTPYTDVNIVTIRENTEGEYSGIEHVIVDGVVQSIKLITEGASKRIAEFAFEYARNNHRSNVTAVHKANIMRMSDGLFLQKCREVAENCKDIKFNEMYLDTVCLNMVQDPSQFDVLVMPNLYGDILSDLCAGLIGGLGVTQSGNIGANGVAIFESVHGTAPDIAGKDMANPTALLLSAVMMLRHMGLFDHAAKIEAACFATIKDGKSLTKDLGGNSKCSDFTEEICRRVKDLD
B10: IDH2 (protein, UniProt P56574 40-452)
chain: AEKRIKVEKPVVEMDGDEMTRIIWQFIKEKLILPHVDVQLKYFDLGLPNRDQTNDQVTIDSALATQKYSVAVKCATITPDEARVEEFKLKKMWKSPNGTIRNILGGTVFREPIICKNIPRLVPGWTKPITIGRHAHGDQYKATDFVVDRAGMFKLVFTPKDGSGAKEWEVYNFPAGGVGMGMYNTDESISGFAHSCFQYSIQKKWPLYLSTKNTIMKAYDGRFKDIFQEIFDKHYKTDFDKNKIWYEHRLIDDMVAQVLKSSGGFVWACKNYDGDVQSDILAQGFGSLGLMTSVLVCPDGKTIEAEAAHGTVTRHYREHQKGRPTSTNPIASIFAWTRGLEHRGKLDGNQDLIRFAQTLEKVCVQTVESGAMTKDLAGCIHGLSNVKLNEHFLNTTDFLDTIKSNLDRALGKQ

target: Huntingtin-interacting protein 1 (rat) (rat (endogenous in rat FLS)); assay: affinity purification with mass spectrometry; rabbit anti-rat-HIP1 antibody (20 μg per sample) on Dynabeads M-270 Epoxy; total lysates of rat FLS (one DA and one R6 cell line, each in triplicate), starved 24 h, then PDGFβ 100 ng/mL 30 min; lysis in water with protease and phosphatase inhibitors by three freeze-thaw cycles; elution with 8 M urea, LysC and trypsin, nano-LC-MS/MS, label-free quantitation

binding, binds:
B1
B2
B3
B4
B5
B6
B7
B8
B9
B10
